Reference: article PMC7862700
The list shows a part of the results. Construct or isoform of the protein are uncertain.

Target: T1, ETV4 (UniProt P43268)
T1 sequence: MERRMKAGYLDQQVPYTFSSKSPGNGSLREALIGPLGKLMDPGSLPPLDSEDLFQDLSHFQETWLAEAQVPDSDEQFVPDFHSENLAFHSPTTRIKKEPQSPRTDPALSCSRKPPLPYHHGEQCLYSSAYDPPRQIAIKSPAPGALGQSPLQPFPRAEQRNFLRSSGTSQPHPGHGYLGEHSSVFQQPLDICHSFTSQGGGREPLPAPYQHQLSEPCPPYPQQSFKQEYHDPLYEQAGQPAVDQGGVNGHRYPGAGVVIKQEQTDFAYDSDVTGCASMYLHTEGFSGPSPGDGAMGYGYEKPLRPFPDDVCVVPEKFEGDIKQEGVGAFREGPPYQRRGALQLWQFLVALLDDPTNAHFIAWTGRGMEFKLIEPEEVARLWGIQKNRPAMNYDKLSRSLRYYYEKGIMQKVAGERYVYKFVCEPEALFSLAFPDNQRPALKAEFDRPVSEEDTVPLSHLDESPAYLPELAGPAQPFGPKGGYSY
Assay: DAPPL (digital affinity profiling via proximity ligation, sequencing)
Conditions: 10 mM Tris-HCl pH 7.5, 50 mM NaCl, 1 mM DTT, 4% glycerol, room temperature, 30 min; GST-TFs on glutathione beads, 16-mer random dsDNA library, 0.1% …; high values mean tight binding; double strand, one strand shown; scale: fold enrichment (6-mer frequency, TF over GST control)

Row | Sequence | binding signal
1 | TAATCT | 1.45
2 | ACGTTA | 1.12
3 | CTGTCA | 1.15
4 | CCGCCT | 1.59
5 | ACTAAC | 1.33
6 | GCTCAG | 1.2
7 | CTGACT | 1.34
8 | TTGAAC | 1.1
9 | GTCTTA | 1.13
10 | TTTAAA | 1.15
11 | CAAAAA | 1.11
12 | TCCTCC | 1.57
13 | CAACCA | 1.06
14 | TATCTC | 1.38
15 | ACTTAT | 1.46
16 | ATACGT | 1.02
17 | TCTCGG | 1.43
18 | TATGGC | 1.3
19 | TTGGCC | 1.21
20 | TTGACC | 1.51

Row | Sequence | binding signal
21 | CTTACC | 1.18
22 | ACTTTG | 1.22
23 | TCTTGC | 1.25
24 | GTATTC | 1.2
25 | ATCTCG | 1.44
26 | GATGGC | 1.49
27 | CCATAT | 1.25
28 | GTTCTA | 1.22
29 | TCCTTG | 1.25
30 | ACCGGA | 3.61
31 | CTGATC | 1.44
32 | ACCACC | 1.22
33 | TCCTCA | 1.51
34 | TCGCGC | 1.03
35 | CTTCTA | 1.43
36 | ATACCG | 1.12
37 | GTCCCT | 1.27
38 | TACCAC | 1.26
39 | GAATTT | 1.22

Look-ups from the results shown.
TCTTGC | binding signal: 1.25
GATGGC | binding signal: 1.49
